These are yes or no findings as the source states them, for the method shown. Binding seen in cells or lysates may run through a third protein. Some results given as binding are weak or reduced against the parent protein; the word gives no strength.
Legend:
[1] = biological target: FLAG-PCNT (wild type) (human) (UniProt O95613); assay: co-IP; HEK293T cells transfected with FLAG-tagged constructs, STLC 16 h (mitotic); lysis in 25 mM Tris-HCl pH 7.4, 100 mM NaCl, 5 mM MgCl2, 5 mM NaF, 20 mM β-glycerophosphate, 0.5% NP-40; FLAG-M2 AffinityGel 1.5 h at 4°C; immunoblot of the endogenous partner
FLAG-PCNT^AA (human) = FLAG-PCNT^AA (human) (UniProt O95613); assay: as above

Sequences of proteins named here, by UniProt entry; tags and fusion partners are left off. A change or cut given only in a name is not applied to a line headed by its entry.
UniProt O95613: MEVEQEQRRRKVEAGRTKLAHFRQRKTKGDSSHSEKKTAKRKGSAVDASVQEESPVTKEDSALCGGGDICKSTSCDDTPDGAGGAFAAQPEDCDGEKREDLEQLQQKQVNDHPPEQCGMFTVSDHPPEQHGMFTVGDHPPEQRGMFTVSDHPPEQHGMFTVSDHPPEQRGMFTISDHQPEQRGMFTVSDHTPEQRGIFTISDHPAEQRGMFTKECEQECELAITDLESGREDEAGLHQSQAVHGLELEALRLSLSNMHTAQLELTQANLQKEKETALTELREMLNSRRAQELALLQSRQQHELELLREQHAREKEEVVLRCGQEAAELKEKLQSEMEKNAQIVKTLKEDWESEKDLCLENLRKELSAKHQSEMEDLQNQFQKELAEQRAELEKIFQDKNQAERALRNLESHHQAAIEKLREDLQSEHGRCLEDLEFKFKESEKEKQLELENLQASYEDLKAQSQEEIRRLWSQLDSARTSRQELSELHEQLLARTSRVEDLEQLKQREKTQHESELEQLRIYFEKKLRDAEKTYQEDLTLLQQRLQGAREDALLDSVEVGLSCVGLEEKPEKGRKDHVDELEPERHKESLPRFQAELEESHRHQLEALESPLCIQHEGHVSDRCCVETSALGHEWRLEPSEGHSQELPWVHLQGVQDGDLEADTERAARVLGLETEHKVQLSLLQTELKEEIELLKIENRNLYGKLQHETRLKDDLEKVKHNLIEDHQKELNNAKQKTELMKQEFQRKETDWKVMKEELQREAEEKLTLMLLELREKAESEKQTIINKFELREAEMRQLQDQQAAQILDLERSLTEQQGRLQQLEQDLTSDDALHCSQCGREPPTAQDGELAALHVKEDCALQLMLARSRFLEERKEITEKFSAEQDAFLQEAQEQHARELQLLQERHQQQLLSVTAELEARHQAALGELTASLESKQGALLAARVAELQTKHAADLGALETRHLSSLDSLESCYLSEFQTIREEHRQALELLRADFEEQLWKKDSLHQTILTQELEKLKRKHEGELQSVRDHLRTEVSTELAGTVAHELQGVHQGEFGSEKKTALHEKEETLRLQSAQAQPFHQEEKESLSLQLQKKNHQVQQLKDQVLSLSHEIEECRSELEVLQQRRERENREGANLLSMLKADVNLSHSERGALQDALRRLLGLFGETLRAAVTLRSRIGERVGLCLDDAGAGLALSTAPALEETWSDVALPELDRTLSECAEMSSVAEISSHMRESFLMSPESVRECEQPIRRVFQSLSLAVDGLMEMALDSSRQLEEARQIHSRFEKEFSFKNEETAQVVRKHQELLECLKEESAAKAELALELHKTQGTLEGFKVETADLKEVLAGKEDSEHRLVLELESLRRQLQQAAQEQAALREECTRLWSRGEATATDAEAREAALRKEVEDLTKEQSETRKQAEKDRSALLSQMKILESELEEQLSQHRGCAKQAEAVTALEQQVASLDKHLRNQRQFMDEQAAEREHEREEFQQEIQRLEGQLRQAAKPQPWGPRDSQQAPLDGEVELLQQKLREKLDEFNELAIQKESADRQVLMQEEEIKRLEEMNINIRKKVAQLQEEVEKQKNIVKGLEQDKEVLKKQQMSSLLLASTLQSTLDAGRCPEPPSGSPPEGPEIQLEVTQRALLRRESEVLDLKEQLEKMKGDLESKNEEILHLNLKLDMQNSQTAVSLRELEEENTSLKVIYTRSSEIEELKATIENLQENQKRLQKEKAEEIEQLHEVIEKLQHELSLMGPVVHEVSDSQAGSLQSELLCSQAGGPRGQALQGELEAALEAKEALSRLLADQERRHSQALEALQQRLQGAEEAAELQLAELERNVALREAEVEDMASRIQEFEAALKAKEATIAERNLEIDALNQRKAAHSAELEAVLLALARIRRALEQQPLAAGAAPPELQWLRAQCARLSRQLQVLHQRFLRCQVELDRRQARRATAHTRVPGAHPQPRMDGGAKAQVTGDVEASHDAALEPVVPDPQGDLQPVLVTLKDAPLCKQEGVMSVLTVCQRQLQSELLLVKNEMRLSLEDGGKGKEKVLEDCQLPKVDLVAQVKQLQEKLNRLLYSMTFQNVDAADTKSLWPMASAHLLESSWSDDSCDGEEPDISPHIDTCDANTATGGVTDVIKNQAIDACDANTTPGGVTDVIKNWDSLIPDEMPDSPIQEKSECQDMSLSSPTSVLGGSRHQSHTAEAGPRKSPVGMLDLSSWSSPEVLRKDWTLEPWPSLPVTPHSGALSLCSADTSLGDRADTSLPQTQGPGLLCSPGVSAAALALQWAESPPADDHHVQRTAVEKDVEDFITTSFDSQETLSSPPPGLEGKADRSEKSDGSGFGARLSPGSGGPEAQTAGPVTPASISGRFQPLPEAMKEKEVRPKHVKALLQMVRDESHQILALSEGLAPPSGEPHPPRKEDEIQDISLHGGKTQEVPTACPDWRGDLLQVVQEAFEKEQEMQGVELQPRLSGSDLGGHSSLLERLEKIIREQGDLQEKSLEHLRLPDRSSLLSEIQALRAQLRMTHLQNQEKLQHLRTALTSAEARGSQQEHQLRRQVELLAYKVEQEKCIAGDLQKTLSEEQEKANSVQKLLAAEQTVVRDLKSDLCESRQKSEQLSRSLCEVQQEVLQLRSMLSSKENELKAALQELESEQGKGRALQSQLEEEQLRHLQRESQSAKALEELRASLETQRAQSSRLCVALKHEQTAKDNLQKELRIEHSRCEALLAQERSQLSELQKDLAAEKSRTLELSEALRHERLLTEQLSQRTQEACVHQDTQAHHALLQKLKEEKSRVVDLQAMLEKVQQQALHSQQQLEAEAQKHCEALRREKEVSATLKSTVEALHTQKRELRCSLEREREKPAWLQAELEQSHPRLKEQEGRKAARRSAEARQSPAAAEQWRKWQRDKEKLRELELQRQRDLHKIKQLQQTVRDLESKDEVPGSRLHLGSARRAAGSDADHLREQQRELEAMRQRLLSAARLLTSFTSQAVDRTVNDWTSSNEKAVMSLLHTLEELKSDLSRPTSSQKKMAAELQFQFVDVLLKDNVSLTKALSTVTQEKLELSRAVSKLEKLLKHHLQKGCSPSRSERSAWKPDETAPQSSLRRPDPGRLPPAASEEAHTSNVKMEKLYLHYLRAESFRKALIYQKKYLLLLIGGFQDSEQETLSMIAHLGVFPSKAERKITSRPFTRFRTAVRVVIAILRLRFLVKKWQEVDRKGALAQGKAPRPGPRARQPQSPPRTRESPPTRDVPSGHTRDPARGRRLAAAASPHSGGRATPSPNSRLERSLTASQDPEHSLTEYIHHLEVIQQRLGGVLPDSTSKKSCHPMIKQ
UniProt Q96SN8: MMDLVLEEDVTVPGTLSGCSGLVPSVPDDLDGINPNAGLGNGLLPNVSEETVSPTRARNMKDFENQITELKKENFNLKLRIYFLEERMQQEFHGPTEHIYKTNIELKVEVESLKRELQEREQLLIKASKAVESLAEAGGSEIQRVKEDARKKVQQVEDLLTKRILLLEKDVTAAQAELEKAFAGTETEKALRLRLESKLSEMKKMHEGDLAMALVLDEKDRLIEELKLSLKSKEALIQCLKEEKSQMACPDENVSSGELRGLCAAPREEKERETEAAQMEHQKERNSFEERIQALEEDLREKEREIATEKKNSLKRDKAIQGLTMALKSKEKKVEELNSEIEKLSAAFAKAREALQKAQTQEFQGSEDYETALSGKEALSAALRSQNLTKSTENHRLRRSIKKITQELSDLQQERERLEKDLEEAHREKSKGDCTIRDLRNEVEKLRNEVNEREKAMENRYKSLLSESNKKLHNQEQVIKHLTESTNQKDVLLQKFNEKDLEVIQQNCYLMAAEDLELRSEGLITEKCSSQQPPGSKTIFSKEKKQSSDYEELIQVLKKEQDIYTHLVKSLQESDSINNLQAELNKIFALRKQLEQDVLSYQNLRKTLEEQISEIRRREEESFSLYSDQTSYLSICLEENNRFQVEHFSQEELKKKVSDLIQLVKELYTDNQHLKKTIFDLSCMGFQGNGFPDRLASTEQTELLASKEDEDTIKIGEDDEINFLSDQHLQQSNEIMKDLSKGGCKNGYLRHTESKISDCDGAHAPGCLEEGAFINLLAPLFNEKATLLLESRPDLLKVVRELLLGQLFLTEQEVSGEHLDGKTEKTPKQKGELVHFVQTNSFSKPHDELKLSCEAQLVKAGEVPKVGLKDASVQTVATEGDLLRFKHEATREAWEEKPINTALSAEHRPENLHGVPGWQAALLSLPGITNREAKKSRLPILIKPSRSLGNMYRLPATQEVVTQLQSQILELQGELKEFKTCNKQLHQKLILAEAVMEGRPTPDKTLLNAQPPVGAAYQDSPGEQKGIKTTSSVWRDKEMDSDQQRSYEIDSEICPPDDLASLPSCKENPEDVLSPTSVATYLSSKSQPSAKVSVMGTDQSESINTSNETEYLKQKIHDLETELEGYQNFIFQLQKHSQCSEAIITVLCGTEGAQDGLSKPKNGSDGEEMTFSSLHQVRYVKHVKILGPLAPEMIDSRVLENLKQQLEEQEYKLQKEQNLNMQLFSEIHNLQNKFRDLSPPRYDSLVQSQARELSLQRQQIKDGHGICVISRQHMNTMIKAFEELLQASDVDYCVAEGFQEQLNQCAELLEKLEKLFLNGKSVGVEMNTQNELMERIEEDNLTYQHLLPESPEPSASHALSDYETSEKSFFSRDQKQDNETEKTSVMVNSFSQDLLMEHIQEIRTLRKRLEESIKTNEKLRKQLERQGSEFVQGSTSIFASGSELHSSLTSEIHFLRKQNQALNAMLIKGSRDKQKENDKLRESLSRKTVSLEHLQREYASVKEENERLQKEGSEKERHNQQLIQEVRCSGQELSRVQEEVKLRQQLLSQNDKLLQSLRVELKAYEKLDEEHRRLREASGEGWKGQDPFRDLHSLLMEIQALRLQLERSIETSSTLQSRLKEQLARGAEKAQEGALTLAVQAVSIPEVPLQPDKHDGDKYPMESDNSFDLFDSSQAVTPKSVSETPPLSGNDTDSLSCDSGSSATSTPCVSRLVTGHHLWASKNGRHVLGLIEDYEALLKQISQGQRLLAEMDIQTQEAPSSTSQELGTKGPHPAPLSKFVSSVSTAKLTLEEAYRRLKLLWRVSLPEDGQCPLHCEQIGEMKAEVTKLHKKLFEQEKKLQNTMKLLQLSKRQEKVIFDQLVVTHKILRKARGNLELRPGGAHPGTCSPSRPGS

CEP215 (endogenous) (from UniProt Q96SN8 1-1893)
binding [1]: binds | binding (FLAG-PCNT^AA (human)): binds

— paper PMC3899370
